Source: the supplement of paper PMC12889115
Some of the results follow. These are raw signals, not scaled to a control.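 In the initial screen, polymyxin B was used at a concentration that permeabilizes Salmonella's outer membrane but not its inner membrane. Maximum growth was set by DMSO wells with or without polymyxin B. Since plates varied, data were ranked per plate, and compounds giving the lowest OD600 advanced as hits.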

System: Salmonella enterica serovar Typhimurium SL1344
Assay: bacterial growth OD600 after 18 h with compound and polymyxin B; higher = more bacterial growth (less inhibition)
Settings: 50 µM, Mueller-Hinton broth

Row | SMILES | bacterial growth OD600 (polymyxin B 0.75 µg/mL) | bacterial growth OD600 (polymyxin B 1 µg/mL)
1 | COC(=O)[C@@H]1CCCN1C(=O)Cc1ccc(N2CCC(NCCc3cccs3)CC2)cc1 | 0.792 | –
2 | CCOC(=O)C1(Cc2ccccc2F)CCCN(C(=O)C(=O)c2ccco2)C1 (centres undefined) | – | 0.921
3 | CCOc1ccccc1N1CCN(Cc2nc(Cc3ccc(OC)c(OC)c3)no2)CC1 | – | 1.06
4 | CCO[C@H]1[C@H](NC(=O)c2cccnc2)c2ccccc2C12CCN(C(=O)c1ccc(C)cc1C)CC2 | 0.836 | –
5 | Cc1ncccc1C(=O)N1CCC(C2CCN(Cc3cccc(F)c3F)CC2)C1 (centres undefined) | 0.809 | –
6 | Cc1ccc(C)c(-n2cc(CN(C)CCO)c(-c3ccccc3)n2)c1 | – | 0.933
7 | COCCN1C(=O)CC(CC(=O)N2CCCC2c2ccccc2OC)(c2ccccc2OC)C1=O (centres undefined) | 0.847 | –
8 | COC(=O)CCC(=O)N1CCc2c([nH]c3ccccc23)C1c1ccccc1F (centres undefined) | – | 0.019
9 | CN(CCOc1ccccc1)C(=O)Cn1cc(NC(=O)CCC(=O)c2ccccc2)cn1 | 0.715 | –
10 | COc1ccccc1OC1CCN(C(=O)c2ccc(-n3cc(NC(=O)c4ccoc4)cn3)cc2)CC1 | 0.698 | –
11 | COCCN(Cc1ccccn1)C(Cc1ccccc1)C1CCN(Cc2cccc(OC)c2O)CC1 (centres undefined) | 0.81 | –
12 | O[C@@H]1CN(Cc2c(F)cccc2Cl)CC[C@H]1N1CCN(c2ccccn2)CC1 | 0.826 | –
13 | COc1ccc(/C=C/C(=O)N2CCCC(N(C)Cc3ccccc3)C2)cc1OC (centres undefined) | – | 0.924
14 | Cc1c[nH]c(CN(C)C(=O)CC(c2cccc(O)c2)c2ccccc2Cl)n1 (centres undefined) | – | 0.764
15 | CCOC(=O)C1(CCCc2ccccc2)CCN(C(=O)c2cc(C(C)=O)n[nH]2)CC1 | – | 0.523
16 | CCOC(=O)C1(CC2CCCCO2)CCN(C(=O)c2cc3c(nc2Cl)CCC3)CC1 (centres undefined) | – | 0.947
17 | O=C(c1cn(Cc2ccc(F)cc2Cl)nn1)N1CCOCC1 | – | 0.952
18 | CCOC(=O)CC1CCCCN1C(=O)CCC1(Cc2cc(OC)ccc2F)CCC(=O)N1 (centres undefined) | 0.794 | –
19 | CC(NC(=O)C1(N(C)CCc2ccccc2)Cc2ccccc2C1)c1ncn[nH]1 (centres undefined) | – | 1.05
20 | COCC1CCN(C(=O)c2coc(COc3cccc(F)c3F)n2)C1 (centres undefined) | – | 0.802
21 | CCN1CCN(C2(C(=O)NCc3ccccn3)Cc3ccccc3C2)CC1 | 0.943 | –
22 | CCN(Cc1cnn(C(C)C)c1)CC1CCCN(CCc2cccc(OC)c2)C1 (centres undefined) | – | 0.768
23 | CN(C(=O)c1cccnc1)C(Cc1ccc(F)cc1F)C1CCN(C(=O)/C=C/c2ccccc2)CC1 (centres undefined) | 0.009 | –
24 | CCOC(=O)N1CCN(C(=O)c2ccc(N3CCC(N4CCCC(O)C4)CC3)cc2)CC1 (centres undefined) | 0.892 | –
25 | COc1cccc(CC2(CCC(=O)N(C)CCC34CC5CC(CC(C5)C3)C4)CCC(=O)N2)c1 (centres undefined) | 0.068 | –
26 | CC(=O)c1ccc(F)c(-c2cc(C)cc3c2OC(CNC(=O)C2(C)CC2)C3)c1 (centres undefined) | 0.612 | –
27 | O=C(NCCC1=CCCCC1)c1coc(COc2ccccc2)n1 | – | 0.002
28 | COc1ccc(CNC(=O)CCC2CCCN(Cc3nc4ccccc4n3C)C2)c(OC)c1 (centres undefined) | – | 0.843
29 | COc1ccc(CCN2CC(NC(=O)CC3=CCCCC3)CC2=O)cc1 (centres undefined) | – | 0.853

In a second layout: 2 of the compounds above
Row	SMILES	bacterial growth OD600 (polymyxin B 0.75 µg/mL)	bacterial growth OD600 (polymyxin B 1 µg/mL)
21	CCN1CCN(C2(C(=O)NCc3ccccn3)Cc3ccccc3C2)CC1	0.943	–
25	COc1cccc(CC2(CCC(=O)N(C)CCC34CC5CC(CC(C5)C3)C4)CCC(=O)N2)c1 (centres undefined)	0.068	–
